According to the supplement of paper PMC3334620:
Over roughly 33,000 sequences, “E-score (-0.5 to 0.5)” has its median near -0.016; the highest 2% begin near 0.3. The list shows a part of the results.

Target: T1, Yer184c (UniProt P39961)
T1 sequence: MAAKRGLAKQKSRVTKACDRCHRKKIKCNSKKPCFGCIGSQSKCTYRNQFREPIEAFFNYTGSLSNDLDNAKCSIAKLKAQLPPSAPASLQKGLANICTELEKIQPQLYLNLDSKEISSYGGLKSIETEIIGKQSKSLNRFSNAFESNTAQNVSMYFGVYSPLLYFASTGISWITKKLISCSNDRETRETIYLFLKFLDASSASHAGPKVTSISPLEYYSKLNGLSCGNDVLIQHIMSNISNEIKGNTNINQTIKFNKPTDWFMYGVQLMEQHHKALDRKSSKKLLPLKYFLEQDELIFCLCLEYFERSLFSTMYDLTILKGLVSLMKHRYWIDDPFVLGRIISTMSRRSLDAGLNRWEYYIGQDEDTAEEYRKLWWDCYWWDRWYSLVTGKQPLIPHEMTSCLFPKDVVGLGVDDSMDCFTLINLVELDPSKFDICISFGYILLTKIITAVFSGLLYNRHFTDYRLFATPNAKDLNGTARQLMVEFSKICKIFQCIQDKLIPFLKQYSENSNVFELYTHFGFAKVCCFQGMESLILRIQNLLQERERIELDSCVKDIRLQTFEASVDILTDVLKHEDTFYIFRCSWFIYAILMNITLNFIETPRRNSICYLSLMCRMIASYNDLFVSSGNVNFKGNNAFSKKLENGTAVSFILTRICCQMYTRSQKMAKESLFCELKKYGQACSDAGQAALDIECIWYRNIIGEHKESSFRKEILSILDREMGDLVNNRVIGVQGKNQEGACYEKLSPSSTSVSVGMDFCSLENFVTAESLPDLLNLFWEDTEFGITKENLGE
Experiment: PBM E-score (8-mer binding enrichment) (E-score (-0.5 to 0.5)); higher = stronger / more preferred TF binding
Conditions: protein concentration: 100 nM; construct: GST-full length
Method in brief: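 Masliner-normalised scans of fluorescent anti-GST signal were the basis for scoring. That signal came from GST-tagged yeast transcription factors applied at about 100-200 nM to double-stranded universal all-10-mer Agilent arrays on fresh or once-stripped slides. Each ungapped eight-base word, pooled with its reverse complement, received an E-score from the Universal PBM Analysis Suite.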

Sequence | PBM E-score
AGCCTATA | -0.0122
GCCCACTA | -0.2
CACTGTCC | 0.0762
AACTGATA | 0.102
CTGCAACC | -0.182
CTCTCCGC | 0.093
CATTTGAA | 0.0953
GTACTTTA | -0.0471
CCCAGCCG | 0.0716
GTTAGTTA | 0.178
AATAGATG | 0.0604
CGTGCTGC | -0.0543
GCCGAGCC | 0.34
ACACTCGA | 0.0367
ATGACCGA | 0.0527
CTACCCGA | 0.0786
AGAGGCGG | -0.0436
AAACTCTG | 0.118
CGGGCACC | 0.144
AAAAGTTC | 0.0949
GGTACCAA | -0.0707
ATTTTCTA | 0.165
TAGTGAAA | 0.00664
GGACCTTA | -0.099
CGTACTAG | -0.0141

Sequence | PBM E-score
CCCTAGGC | -0.171
AAAGGTGC | -0.206
GGGACTAA | -0.0762
AGCTGCTC | -0.156
CAGCTTAC | -0.00815
AAGTCCAA | 0.0676
ATCGTACC | -0.193
AATTTCCA | 0.145
CACGCAAA | -0.0728
GGTAGGCA | -0.19
AAAAGGGC | -0.118
AGGTAGAA | -0.0769
CGAGTTGA | 0.0776
GCACGGAA | 0.159
GCGCATCA | -0.0524
GGACCAGA | -0.131
TAAGACCA | -0.0956
CTCCACCA | -0.217
GGTCTAAA | 0.00102
ACATACGG | 0.00388
ACTTTCTA | -0.0235
GAAACAAC | 0.182
CGAGCTGC | 0.0761
AAGCGACC | 0.11
TACAGGGA | -0.212

No new results follow: an excerpt of the list.
Sequence | PBM E-score
GCGCATCA | -0.0524
GGACCAGA | -0.131

(continued)

Sequence | PBM E-score
CGTCGGAC | 0.0076
AACGACCA | -0.0798
GGGGGCTA | -0.34
AGAACTGG | 0.208
GGAGGACA | -0.0724
ATGCTTCA | -0.0764
AATACTGA | 0.0147
AATGGCAT | 0.164
CACTCCTC | -0.211
CTACGACC | -0.209
AGCTCCGG | 0.313
CCGGTCTA | 0.0628
AACCATTA | 0.129
AGGAGCTC | -0.153
AGACCATC | -0.259
GAGGATGA | -0.0701
CAGGTCTA | -0.0675
CACGAGCG | -0.186
GGACCCAC | -0.182
GACAAAGA | 0.124
GGCACAAA | 0.0967
CAGTGTAA | 0.149
CGGCCTGA | 0.0451
AAGCGGCC | -0.09
ATTTAGAA | 0.118

Sequence | PBM E-score
CCGTACCG | 0.0861
CTGGTCAA | -0.0747
CTAGACCA | -0.161
ACGGAAGA | 0.262
ATATTATA | 0.163
ATACACCG | 0.145
CGCGAAAA | 0.0676
CCTAATCG | 0.123
CTTTTGAA | 0.173
CTTGGAGA | -0.0754
AAGTCTCA | -0.243
CTAATGAA | 0.231
AAAGATAG | 0.0599
AACGCATC | -0.116
AGTTAAGC | 0.0327
ACTAACAC | -0.00933
AGTCTCGA | -0.0755
CTTCTCCC | -0.169
GTCCAGCA | -0.0918
CTGATACC | -0.102
AGAAATCG | 0.156
GACTCATA | -0.00441
CGGCGCTC | 0.121
TCGCGTAA | 0.121
ATAATACG | 0.153

Sequence | PBM E-score
AACGGAAA | 0.408
ACATACTG | -0.0524
CACTCACG | -0.0258
CAGGCCCG | -0.0236
CGGTGCTC | 0.0276
CCCCGTTA | -0.271
AACGCTCT | -0.246
CAGCCCAG | -0.289
AGGAGGTC | -0.316
CGATCTTC | 0.00402
AACTACGG | 0.00041
ACATACCT | -0.242
GCGATTCC | -0.0469
GTACTGAC | -0.0355
CTTACAAG | -0.202
AAATTTGA | 0.176
CGGGCAGC | 0.204
CACCCGCG | 0.183
GCGGGTCA | 0.0612
AGCCGTTA | 0.239
CTAGTCAG | -0.168
GCCGCGGA | 0.386
GAGACTAA | 0.124
CAGAGTCA | -0.169
TATTCCCA | 0.0619

Sequence | PBM E-score
AGATGGTC | -0.24
CGGATCCG | 0.445
GGCCCTAA | 0.0976
TATAGGGA | -0.0722
ACTCCCCA | -0.195
CGTAATCA | 0.133
AGTGTCTA | 0.183
CCGCCCCA | 0.0116
CTTACTCC | 0.00461
ATGGGTAA | 0.119
GTGGCAAC | 0.0181
CAACACCG | 0.0665
CTATAGTC | -0.115
AAGAGTAA | 0.0671
ACTTACAA | 0.129
AACCGTAT | -0.212
ATTCCTCG | 0.0775
CCTAAGGA | -0.0765
AGGCGACT | -0.1
CCCTATGC | -0.364
AGAAAGCG | -0.0479
ACTTCGGA | 0.337
ACCGACCC | -0.0389
GAGCCCGA | 0.0143
ACCGCAGT | -0.096

3 records picked at random from the list so far, as already listed:
Sequence | PBM E-score
AACGCTCT | -0.246
CAGGTCTA | -0.0675
AAATTTGA | 0.176

More entries follow:

Sequence | PBM E-score
AAAAGGAC | 0.0305
AACCACTG | 0.0502
AAATGCCG | 0.353
CCGAACCA | 0.154
TCGGAGCA | 0.212
AGCCCGCA | -0.159
ACCTGAGA | -0.123
CCCTCTAC | -0.263
AATGATTC | 0.107
CAAACGGC | -0.0527
CCTGTGAC | -0.223
ATTGAAGG | 0.0279
AAGCTGAC | 0.0973
CCGGCATC | 0.322
GAGATTGC | -0.184
AGCGTAGC | -0.142
AATAGCGG | 0.0178
GAGTATTA | 0.0672
CTCCGCCC | 0.012
CCTTCGTC | -0.0787
GCAGAGTA | 0.0284
GGAAAAGA | 0.0935
